Laboratory results reported in paper PMC11705638.
These are yes or no findings as the source states them, for the method shown. For part of these data: In cells and extracts the contact can be indirect. Some binding calls cover weakened binding; strength is not graded here. For part of these data: Sequences can lack the tags named with a protein. Values belong to the binder of their own block, whether it stands above or below them.

Legend:
[1] = molecular target: T1, HA-SIRT2 (human sirtuin 2 with a C-terminal HA tag) (human) (UniProt Q8IXJ6); assay: co-IP; HEK293T cells transfected with HA-SIRT2 and Flag-CPT2; lysis buffer 20 mM Tris-HCl pH 8.0, 100 mM NaCl, 1 mM EDTA, 0.5% NP-40; IP with anti-HA or anti-Flag, normal IgG as control; protein A/G magnetic beads; western blot
T1 sequence: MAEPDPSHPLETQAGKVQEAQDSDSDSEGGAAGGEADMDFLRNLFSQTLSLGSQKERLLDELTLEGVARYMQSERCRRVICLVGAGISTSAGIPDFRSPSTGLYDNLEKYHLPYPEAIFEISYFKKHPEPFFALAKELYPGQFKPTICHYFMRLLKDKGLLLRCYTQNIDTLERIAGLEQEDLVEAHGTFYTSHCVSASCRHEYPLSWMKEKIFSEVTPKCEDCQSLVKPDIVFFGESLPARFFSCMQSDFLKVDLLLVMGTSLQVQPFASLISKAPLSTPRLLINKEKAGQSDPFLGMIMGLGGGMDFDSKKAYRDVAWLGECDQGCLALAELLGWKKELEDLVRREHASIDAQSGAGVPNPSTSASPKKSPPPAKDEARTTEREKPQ

GST-SIRT2 fusion protein = molecular target: T2, GST-SIRT2 fusion protein (UniProt Q8IXJ6); assay: pull-down; in vitro; GST fusion proteins on beads incubated with NP40 containing Myc/Flag-CPT2 overnight at 4°C, washed three times with NP40; western blot; both purified
T2 sequence: T1 sequence

[2] = molecular target: T3, SIRT2 (endogenous, AC16 cells) (human (endogenous in AC16)) (UniProt Q8IXJ6); assay: co-IP; lysates of AC16 cells, endogenous proteins; IP with anti-SIRT2 or anti-CPT2; lysis buffer 20 mM Tris-HCl pH 8.0, 100 mM NaCl, 1 mM EDTA, 0.5% NP-40; protein A/G magnetic beads; western blot
T3 sequence: T1 sequence

binding [1]: binds
B1: Flag-CPT2 (human carnitine palmitoyltransferase 2 with an N-terminal FLAG tag) (enzyme, UniProt P23786 26-658)
chain: SAGSGPGQYLQRSIVPTMHYQDSLPRLPIPKLEDTIRRYLSAQKPLLNDGQFRKTEQFCKSFENGIGKELHEQLVALDKQNKHTSYISGPWFDMYLSARDSVVLNFNPFMAFNPDPKSEYNDQLTRATNMTVSAIRFLKTLRAGLLEPEVFHLNPAKSDTITFKRLIRFVPSSLSWYGAYLVNAYPLDMSQYFRLFNSTRLPKPSRDELFTDDKARHLLVLRKGNFYIFDVLDQDGNIVSPSEIQAHLKYILSDSSPAPEFPLAYLTSENRDIWAELRQKLMSSGNEESLRKVDSAVFCLCLDDFPIKDLVHLSHNMLHGDGTNRWFDKSFNLIIAKDGSTAVHFEHSWGDGVAVLRFFNEVFKDSTQTPAVTPQSQPATTDSTVTVQKLNFELTDALKTGITAAKEKFDATMKTLTIDCVQFQRGGKEFLKKQKLSPDAVAQLAFQMAFLRQYGQTVATYESCSTAAFKHGRTETIRPASVYTKRCSEAFVREPSRHSAGELQQMMVECSKYHGQLTKEAAMGQGFDRHLFALRHLAAAKGIILPELYLDPAYGQINHNVLSTSTLSSPAVNLGGFAPVVSDGFGVGYAVHDNWIGCNVSSYPGRNAREFLQCVEKALEDMFDALEGKSIKS

binding (GST-SIRT2 fusion protein): binds
B2: Myc/Flag-CPT2 (enzyme, UniProt P23786 26-658)
chain: B1 chain

binding [2]: binds
B3: CPT2 (endogenous, AC16 cells) (enzyme, UniProt P23786 26-658)
chain: B1 chain
